Laboratory results from patent publication US20250032525A1 (priority 2021, published 2025).
For some assays here: For at least one compound, name, drawing or mass did not settle the structure. Some of these results come from one statement about several compounds together.

Legend:
B16 melanoma tumors = test: Mouse B16 melanoma model; type: in vivo, C57BL/6 mice; details: dacarbazine 70 mg/kg repeated; LiPyDau 1 mg/kg single dose, tail vein
NCI-60 cell lines = details: panel of cell lines, typical range, database values; read-out: IC50 values, typically; cited from earlier work

Compound: CN(C)/N=N/c1[nH]cnc1C(N)=O [dacarbazine]
- Tumor growth (B16 melanoma tumors): did not exhibit any effect

Compound: COc1cccc2c1C(=O)c1c(O)c3c(c(O)c1C2=O)C[C@@](O)(C(C)=O)C[C@@H]3O[C@H]1C[C@H](N)[C@H](O)[C@H](C)O1 [Dau, daunorubicin]
- IC50 (NCI-60 cell lines): 30 to 300 nM
